Assay: Colouration of bleached hair by a solution of the dyestuff, expressed in Munsell's notation (HV/C)
Set-up: species or system human
Conditions: 28° C., 30 minutes, 0.00028 mol dye in 15 ml ethanol and 85 ml water, pH 9

SMILES | chromaticity (C in Munsell's notation)
COc1ccc([N+](=O)[O-])c(NCCO)c1 [3-N-(β-hydroxyethyl)-amino-4-nitroanisole] | 10
COc1ccc([N+](=O)[O-])c(NCC(C)O)c1 (stereo not drawn) [3-N-(β-hydroxypropyl)-amino-4-nitroanisole] | 8.5
COc1ccc([N+](=O)[O-])c(NCC(O)CO)c1 (stereo not drawn) [3-N-(β,γ-dihydroxypropyl)-amino-4-nitroanisole] | 9.5
